Values of other authors, collected in patent US9809598B2 (Merck Patent GmbH, priority 2014, dated 2017).
pEC50: −log10 of the molar value. For at least one compound, name, drawing or mass did not settle the structure.

Target: Tankyrase
Details: as reported in the cited publication / patent application; read-out: cellular assay: EC50; cited from earlier work

SMILES: O=C(CCCc1nc2ccccc2c(=O)[nH]1)N1CCC(c2nnc(-c3ccc(F)cc3)o2)CC1
- pEC50: 6.61
